The text below walks through data of patent publication US20020165153A1.

The target in the assay is T1, wild-type cJun, P05412.
T1 chain: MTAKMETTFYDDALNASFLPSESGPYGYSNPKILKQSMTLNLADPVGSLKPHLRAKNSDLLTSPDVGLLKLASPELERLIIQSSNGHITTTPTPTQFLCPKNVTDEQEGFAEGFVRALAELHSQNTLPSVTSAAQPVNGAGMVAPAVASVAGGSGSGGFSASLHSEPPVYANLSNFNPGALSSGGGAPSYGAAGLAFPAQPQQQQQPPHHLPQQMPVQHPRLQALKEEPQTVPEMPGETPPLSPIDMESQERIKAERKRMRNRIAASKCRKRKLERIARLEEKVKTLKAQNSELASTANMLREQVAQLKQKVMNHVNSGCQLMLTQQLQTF
Kind of assay: protein interaction without DNA (mammalian two hybrid analysis); ATF2 is the reference that binds better than ATF2-m5. Conditions: remark: other sources report otherwise.

Results are given in words; binding and its absence hold for the method and conditions named. Some results given as binding are weak or reduced against the parent protein; the word gives no strength.

B1: ATF2, P15336 1-505 (protein, UniProt P15336 1-505, looked up)
chain: MKFKLHVNSARQYKDLWNMSDDKPFLCTAPGCGQRFTNEDHLAVHKHKHEMTLKFGPARNDSVIVADQTPTPTRFLKNCEEVGLFNELASPFENEFKKASEDDIKKMPLDLSPLATPIIRSKIEEPSVVETTHQDSPLPHPESTTSDEKEVPLAQTAQPTSAIVRPASLQVPNVLLTSSDSSVIIQQAVPSPTSSTVITQAPSSNRPIVPVPGPFPLLLHLPNGQTMPVAIPASITSSNVHVPAAVPLVRPVTMVPSVPGIPGPSSPQPVQSEAKMRLKAALTQQHPPVTNGDTVKGHGSGLVRTQSEESRPQSLQQPATSTTETPASPAHTTPQTQSTSGRRRRAANEDPDEKRRKFLERNRAAASRCRQKRKVWVQSLEKKAEDLSSLNGQLQSEVTLLRNEVAQLKQLLLAHKDCPVTAMQKKSGYHTADKDDSSEDISVPSSPHTEAIQHSSVSTSNGVSSTSKAEAVATSVLTQMADQSTEPALSQIVMAPSSQSQPSGS
For the molecule B1, the binding entry is on record as “binds”.
